Reference: paper PMC10279913

By UniProt entry, the sequences of proteins in these tests, tags left out. Where a name states a change or a piece, a line headed by the entry shows the natural chain unless it says otherwise. Residues count along the entry.
UniProt Q99436: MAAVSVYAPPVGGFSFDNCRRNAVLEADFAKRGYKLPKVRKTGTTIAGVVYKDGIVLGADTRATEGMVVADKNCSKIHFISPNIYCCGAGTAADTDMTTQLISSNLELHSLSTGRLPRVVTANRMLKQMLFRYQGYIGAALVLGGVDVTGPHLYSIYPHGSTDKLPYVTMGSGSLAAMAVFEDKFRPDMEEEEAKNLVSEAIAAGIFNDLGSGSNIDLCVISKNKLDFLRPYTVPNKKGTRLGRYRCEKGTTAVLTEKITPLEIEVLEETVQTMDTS
UniProt P60900: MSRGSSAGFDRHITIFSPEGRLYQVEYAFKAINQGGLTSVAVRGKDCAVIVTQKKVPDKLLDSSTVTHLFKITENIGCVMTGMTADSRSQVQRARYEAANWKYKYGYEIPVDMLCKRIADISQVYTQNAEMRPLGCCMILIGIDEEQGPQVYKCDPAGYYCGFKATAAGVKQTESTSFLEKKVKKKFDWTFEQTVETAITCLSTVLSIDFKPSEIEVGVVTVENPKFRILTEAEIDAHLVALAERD
UniProt P20618: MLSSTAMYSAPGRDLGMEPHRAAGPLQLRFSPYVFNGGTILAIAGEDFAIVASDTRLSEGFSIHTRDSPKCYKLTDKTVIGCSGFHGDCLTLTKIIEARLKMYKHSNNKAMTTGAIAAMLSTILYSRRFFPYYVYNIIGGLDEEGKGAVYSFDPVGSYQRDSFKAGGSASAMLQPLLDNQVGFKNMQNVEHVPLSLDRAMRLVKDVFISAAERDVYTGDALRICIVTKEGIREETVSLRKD
UniProt O15234: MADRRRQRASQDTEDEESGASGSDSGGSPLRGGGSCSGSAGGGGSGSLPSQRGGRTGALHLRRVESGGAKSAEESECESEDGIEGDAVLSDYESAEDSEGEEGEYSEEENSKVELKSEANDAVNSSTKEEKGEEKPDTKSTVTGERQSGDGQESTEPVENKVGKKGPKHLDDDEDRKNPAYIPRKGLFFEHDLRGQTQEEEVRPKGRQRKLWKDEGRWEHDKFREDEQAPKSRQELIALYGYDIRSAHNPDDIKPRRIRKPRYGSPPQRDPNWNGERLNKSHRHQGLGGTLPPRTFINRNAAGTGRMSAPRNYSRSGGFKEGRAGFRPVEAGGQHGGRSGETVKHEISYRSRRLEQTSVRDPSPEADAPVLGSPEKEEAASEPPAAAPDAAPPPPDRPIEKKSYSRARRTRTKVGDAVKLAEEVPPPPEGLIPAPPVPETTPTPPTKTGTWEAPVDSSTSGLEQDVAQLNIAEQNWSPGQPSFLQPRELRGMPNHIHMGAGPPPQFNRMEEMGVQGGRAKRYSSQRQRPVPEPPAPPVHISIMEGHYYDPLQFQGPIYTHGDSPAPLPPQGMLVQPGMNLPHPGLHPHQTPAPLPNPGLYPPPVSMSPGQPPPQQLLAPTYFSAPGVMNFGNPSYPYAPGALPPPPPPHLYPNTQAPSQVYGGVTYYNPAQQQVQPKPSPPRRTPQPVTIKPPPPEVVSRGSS
UniProt P60953: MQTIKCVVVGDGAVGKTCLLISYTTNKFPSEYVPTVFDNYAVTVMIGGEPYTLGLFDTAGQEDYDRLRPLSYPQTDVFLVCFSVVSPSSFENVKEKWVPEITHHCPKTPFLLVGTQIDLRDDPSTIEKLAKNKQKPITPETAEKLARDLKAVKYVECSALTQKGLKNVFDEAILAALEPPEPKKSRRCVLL
UniProt Q96MG8: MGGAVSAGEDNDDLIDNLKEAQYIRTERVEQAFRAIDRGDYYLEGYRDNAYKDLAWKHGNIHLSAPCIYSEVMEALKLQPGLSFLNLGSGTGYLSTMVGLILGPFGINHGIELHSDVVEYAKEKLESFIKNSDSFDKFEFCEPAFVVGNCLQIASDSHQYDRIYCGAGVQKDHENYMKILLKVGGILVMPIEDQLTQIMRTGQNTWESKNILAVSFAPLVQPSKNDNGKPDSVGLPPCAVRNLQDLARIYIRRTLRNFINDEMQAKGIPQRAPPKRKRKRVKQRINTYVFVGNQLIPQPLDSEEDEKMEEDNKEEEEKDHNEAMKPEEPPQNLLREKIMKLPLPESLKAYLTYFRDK
UniProt P15090: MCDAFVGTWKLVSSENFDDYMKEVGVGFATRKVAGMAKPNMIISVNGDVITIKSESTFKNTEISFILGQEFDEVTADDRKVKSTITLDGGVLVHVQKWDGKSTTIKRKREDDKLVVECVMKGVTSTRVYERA
UniProt P63167: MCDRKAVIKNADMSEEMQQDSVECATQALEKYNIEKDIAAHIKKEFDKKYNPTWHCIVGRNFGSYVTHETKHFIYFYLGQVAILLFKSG
UniProt Q92598: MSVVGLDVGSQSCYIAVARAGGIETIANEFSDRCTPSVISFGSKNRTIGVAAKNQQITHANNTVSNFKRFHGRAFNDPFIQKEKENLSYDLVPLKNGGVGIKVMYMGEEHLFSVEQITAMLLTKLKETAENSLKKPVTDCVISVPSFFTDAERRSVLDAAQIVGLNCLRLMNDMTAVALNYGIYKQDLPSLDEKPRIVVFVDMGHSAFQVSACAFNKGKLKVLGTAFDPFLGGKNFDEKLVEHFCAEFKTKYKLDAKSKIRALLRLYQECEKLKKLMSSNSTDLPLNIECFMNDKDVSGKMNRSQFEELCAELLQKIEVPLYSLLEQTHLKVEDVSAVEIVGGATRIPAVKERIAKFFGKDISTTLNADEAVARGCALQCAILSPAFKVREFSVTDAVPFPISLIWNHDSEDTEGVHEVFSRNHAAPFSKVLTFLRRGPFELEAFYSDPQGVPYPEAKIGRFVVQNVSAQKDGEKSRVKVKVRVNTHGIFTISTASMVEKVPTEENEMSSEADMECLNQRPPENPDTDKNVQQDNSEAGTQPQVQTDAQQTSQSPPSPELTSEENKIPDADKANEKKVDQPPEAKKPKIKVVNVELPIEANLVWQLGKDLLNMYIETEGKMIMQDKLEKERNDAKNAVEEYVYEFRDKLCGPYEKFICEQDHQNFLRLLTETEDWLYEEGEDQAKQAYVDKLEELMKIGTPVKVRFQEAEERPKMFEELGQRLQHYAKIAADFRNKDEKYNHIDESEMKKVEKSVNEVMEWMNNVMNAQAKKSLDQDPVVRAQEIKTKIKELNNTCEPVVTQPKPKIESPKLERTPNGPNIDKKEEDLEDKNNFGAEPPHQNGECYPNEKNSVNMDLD
UniProt B2RXH8: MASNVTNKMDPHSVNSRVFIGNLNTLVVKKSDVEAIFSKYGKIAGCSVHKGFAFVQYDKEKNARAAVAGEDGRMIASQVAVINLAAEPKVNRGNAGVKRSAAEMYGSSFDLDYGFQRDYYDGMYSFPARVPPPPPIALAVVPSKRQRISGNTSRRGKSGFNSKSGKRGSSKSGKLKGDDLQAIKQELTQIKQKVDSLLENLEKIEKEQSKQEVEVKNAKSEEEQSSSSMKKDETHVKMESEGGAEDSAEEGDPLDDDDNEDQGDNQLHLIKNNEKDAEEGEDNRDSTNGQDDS
UniProt P62316: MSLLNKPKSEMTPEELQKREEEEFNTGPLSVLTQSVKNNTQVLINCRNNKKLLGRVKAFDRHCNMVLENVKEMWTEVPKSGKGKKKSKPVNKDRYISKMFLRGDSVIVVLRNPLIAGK
UniProt Q16799: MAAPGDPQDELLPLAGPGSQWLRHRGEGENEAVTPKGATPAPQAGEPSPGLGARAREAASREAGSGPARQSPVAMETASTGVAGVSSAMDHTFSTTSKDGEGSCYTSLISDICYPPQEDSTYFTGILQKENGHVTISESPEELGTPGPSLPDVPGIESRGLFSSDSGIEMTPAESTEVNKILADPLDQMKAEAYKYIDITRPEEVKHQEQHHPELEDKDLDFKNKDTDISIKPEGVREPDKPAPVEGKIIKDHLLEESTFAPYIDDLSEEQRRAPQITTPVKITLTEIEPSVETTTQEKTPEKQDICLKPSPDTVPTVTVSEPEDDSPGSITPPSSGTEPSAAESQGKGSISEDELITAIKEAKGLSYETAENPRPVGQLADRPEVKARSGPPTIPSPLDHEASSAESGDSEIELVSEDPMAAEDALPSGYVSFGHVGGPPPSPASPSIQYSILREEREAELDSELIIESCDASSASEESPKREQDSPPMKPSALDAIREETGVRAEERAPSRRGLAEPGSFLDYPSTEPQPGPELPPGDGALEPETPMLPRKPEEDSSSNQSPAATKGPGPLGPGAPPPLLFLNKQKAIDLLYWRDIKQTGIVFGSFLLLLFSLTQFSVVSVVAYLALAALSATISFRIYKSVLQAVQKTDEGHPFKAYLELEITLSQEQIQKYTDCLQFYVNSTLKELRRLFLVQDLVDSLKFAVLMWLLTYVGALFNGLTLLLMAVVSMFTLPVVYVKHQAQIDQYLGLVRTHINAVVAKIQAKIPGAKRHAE
UniProt P52926: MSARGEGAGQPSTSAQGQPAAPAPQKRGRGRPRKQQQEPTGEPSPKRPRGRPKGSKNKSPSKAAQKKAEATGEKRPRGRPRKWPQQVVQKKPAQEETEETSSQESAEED
UniProt O95816: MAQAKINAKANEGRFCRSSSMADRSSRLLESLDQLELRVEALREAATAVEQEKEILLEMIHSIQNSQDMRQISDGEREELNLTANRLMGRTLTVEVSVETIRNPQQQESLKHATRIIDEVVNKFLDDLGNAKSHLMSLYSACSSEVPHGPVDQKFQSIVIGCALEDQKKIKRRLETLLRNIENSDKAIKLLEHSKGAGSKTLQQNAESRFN
UniProt P11488: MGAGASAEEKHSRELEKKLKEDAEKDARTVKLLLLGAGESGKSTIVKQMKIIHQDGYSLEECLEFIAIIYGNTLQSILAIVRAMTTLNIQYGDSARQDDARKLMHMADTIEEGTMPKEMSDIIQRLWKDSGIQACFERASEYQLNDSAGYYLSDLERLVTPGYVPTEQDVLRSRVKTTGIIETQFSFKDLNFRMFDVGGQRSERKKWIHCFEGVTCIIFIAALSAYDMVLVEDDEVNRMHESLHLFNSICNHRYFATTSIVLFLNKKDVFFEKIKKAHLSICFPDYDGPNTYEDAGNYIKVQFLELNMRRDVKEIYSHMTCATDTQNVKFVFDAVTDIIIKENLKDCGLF
UniProt Q13296, residues 19-93: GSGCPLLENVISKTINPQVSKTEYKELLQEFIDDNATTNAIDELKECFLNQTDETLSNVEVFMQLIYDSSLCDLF
UniProt P13010: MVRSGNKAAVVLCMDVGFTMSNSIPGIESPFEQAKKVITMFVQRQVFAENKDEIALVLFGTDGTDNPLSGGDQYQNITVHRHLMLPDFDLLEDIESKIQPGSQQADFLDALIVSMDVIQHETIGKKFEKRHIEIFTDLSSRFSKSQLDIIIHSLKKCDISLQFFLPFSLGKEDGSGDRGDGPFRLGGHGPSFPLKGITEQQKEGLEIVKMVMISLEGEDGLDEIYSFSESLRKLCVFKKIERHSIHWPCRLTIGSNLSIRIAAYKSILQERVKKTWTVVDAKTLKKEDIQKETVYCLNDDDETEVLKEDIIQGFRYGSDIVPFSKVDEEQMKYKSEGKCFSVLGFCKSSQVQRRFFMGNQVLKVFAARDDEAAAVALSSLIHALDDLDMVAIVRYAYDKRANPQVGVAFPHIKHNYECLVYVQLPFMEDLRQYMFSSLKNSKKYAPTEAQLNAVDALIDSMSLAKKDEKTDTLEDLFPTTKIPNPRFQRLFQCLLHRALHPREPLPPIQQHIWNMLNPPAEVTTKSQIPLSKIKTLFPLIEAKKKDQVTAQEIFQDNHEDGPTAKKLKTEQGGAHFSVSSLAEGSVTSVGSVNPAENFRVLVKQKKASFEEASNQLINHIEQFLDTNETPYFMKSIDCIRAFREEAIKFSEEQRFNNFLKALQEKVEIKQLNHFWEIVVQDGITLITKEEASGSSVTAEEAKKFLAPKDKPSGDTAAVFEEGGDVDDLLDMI
UniProt P61224: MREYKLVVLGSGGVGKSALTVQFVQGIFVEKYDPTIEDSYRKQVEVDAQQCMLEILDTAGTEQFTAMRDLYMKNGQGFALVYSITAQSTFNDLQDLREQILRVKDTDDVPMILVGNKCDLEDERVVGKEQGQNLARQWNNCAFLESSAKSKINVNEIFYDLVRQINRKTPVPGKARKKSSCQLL

T1: HA::AdipoR2 (human) (UniProt Q86V24)
T1 sequence: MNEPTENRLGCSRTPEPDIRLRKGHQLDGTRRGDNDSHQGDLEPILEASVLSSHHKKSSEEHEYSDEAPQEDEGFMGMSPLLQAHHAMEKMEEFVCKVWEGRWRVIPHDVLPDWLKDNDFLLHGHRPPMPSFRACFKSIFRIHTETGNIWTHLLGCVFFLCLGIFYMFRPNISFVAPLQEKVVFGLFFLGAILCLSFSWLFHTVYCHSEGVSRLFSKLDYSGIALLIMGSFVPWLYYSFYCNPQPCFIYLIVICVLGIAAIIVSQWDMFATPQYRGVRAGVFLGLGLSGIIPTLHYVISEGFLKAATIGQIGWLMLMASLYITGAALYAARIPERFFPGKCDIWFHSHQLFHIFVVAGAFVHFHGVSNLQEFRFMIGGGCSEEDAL

B1: Fructose-bisphosphate aldolase C (protein, UniProt P09972 1-364)
chain: MPHSYPALSAEQKKELSDIALRIVAPGKGILAADESVGSMAKRLSQIGVENTEENRRLYRQVLFSADDRVKKCIGGVIFFHETLYQKDDNGVPFVRTIQDKGIVVGIKVDKGVVPLAGTDGETTTQGLDGLSERCAQYKKDGADFAKWRCVLKISERTPSALAILENANVLARYASICQQNGIVPIVEPEILPDGDHDLKRCQYVTEKVLAAVYKALSDHHVYLEGTLLKPNMVTPGHACPIKYTPEEIAMATVTALRRTVPPAVPGVTFLSGGQSEEEASFNLNAINRCPLPRPWALTFSYGRALQASALNAWRGQRDNAGAATEEFIKRAEVNGLAAQGKYEGSGEDGGAAAQSLYIANHAY
B2: Glycerophosphodiester phosphodiesterase domain-containing protein 3 (protein, UniProt Q7L5L3 1-318)
chain: MSLLLYYALPALGSYAMLSIFFLRRPHLLHTPRAPTFRIRLGAHRGGSGELLENTMEAMENSMAQRSDLLELDCQLTRDRVVVVSHDENLCRQSGLNRDVGSLDFEDLPLYKEKLEVYFSPGHFAHGSDRRMVRLEDLFQRFPRTPMSVEIKGKNEELIREIAGLVRRYDRNEITIWASEKSSVMKKCKAANPEMPLSFTISRGFWVLLSYYLGLLPFIPIPEKFFFCFLPNIINRTYFPFSCSCLNQLLAVVSKWLIMRKSLIRHLEERGVQVVFWCLNEESDFEAAFSVGATGVITDYPTALRHYLDNHGPAARTS
B3: Gamma-glutamyltransferase 7 (protein, UniProt Q9UJ14 1-662)
chain: MAAENEASQESALGAYSPVDYMSITSFPRLPEDEPAPAAPLRGRKDEDAFLGDPDTDPDSFLKSARLQRLPSSSSEMGSQDGSPLRETRKDPFSAAAAECSCRQDGLTVIVTACLTFATGVTVALVMQIYFGDPQIFQQGAVVTDAARCTSLGIEVLSKQGSSVDAAVAAALCLGIVAPHSSGLGGGGVMLVHDIRRNESHLIDFRESAPGALREETLQRSWETKPGLLVGVPGMVKGLHEAHQLYGRLPWSQVLAFAAAVAQDGFNVTHDLARALAEQLPPNMSERFRETFLPSGRPPLPGSLLHRPDLAEVLDVLGTSGPAAFYAGGNLTLEMVAEAQHAGGVITEEDFSNYSALVEKPVCGVYRGHLVLSPPPPHTGPALISALNILEGFNLTSLVSREQALHWVAETLKIALALASRLGDPVYDSTITESMDDMLSKVEAAYLRGHINDSQAAPAPLLPVYELDGAPTAAQVLIMGPDDFIVAMVSSLNQPFGSGLITPSGILLNSQMLDFSWPNRTANHSAPSLENSVQPGKRPLSFLLPTVVRPAEGLCGTYLALGANGAARGLSGLTQVLLNVLTLNRNLSDSLARGRLHPDLQSNLLQVDSEFTEEEIEFLEARGHHVEKVDVLSWVHGSRRTNNFIIAVKDPRSPDAAGATIL
B4: Very-long-chain (3R)-3-hydroxyacyl-CoA dehydratase 3 (enzyme, UniProt Q9P035 1-362)
chain: MENQVLTPHVYWAQRHRELYLRVELSDVQNPAISITENVLHFKAQGHGAKGDNVYEFHLEFLDLVKPEPVYKLTQRQVNITVQKKVSQWWERLTKQEKRPLFLAPDFDRWLDESDAEMELRAKEEERLNKLRLESEGSPETLTNLRKGYLFMYNLVQFLGFSWIFVNLTVRFCILGKESFYDTFHTVADMMYFCQMLAVVETINAAIGVTTSPVLPSLIQLLGRNFILFIIFGTMEEMQNKAVVFFVFYLWSAIEIFRYSFYMLTCIDMDWKVLTWLRYTLWIPLYPLGCLAEAVSVIQSIPIFNETGRFSFTLPYPVKIKVRFSFFLQIYLIMIFLGLYINFRHLYKQRRRRYGQKKKKIH
B5: Probable histidine–tRNA ligase, mitochondrial (enzyme, UniProt P49590 34-506)
chain: QSQVAEAVLTSQLKAHQEKPNFIIKTPKGTRDLSPQHMVVREKILDLVISCFKRHGAKGMDTPAFELKETLTEKYGEDSGLMYDLKDQGGELLSLRYDLTVPFARYLAMNKVKKMKRYHVGKVWRRESPTIVQGRYREFCQCDFDIAGQFDPMIPDAECLKIMCEILSGLQLGDFLIKVNDRRIVDGMFAVCGVPESKFRAICSSIDKLDKMAWKDVRHEMVVKKGLAPEVADRIGDYVQCHGGVSLVEQMFQDPRLSQNKQALEGLGDLKLLFEYLTLFGIADKISFDLSLARGLDYYTGVIYEAVLLQTPTQAGEEPLNVGSVAAGGRYDGLVGMFDPKGHKVPCVGLSIGVERIFYIVEQRMKTKGEKVRTTETQVFVATPQKNFLQERLKLIAELWDSGIKAEMLYKNNPKLLTQLHYCESTGIPLVVIIGEQELKEGVIKIRSVASREEVAIKRENFVAEIQKRLSES
B6: Inositol monophosphatase 2 (enzyme, UniProt O14732 1-288)
chain: MKPSGEDQAALAAGPWEECFQAAVQLALRAGQIIRKALTEEKRVSTKTSAADLVTETDHLVEDLIISELRERFPSHRFIAEEAAASGAKCVLTHSPTWIIDPIDGTCNFVHRFPTVAVSIGFAVRQELEFGVIYHCTEERLYTGRRGRGAFCNGQRLRVSGETDLSKALVLTEIGPKRDPATLKLFLSNMERLLHAKAHGVRVIGSSTLALCHLASGAADAYYQFGLHCWDLAAATVIIREAGGIVIDTSGGPLDLMACRVVAASTREMAMLIAQALQTINYGRDDEK
B7: Kallikrein-10 (protein, UniProt O43240 31-276)
chain: AEAALLPQNDTRLDPEAYGSPCARGSQPWQVSLFNGLSFHCAGVLVDQSWVLTAAHCGNKPLWARVGDDHLLLLQGEQLRRTTRSVVHPKYHQGSGPILPRRTDEHDLMLLKLARPVVLGPRVRALQLPYRCAQPGDQCQVAGWGTTAARRVKYNKGLTCSSITILSPKECEVFYPGVVTNNMICAGLDRGQDPCQSDSGGPLVCDETLQGILSWGVYPCGSAQHPAVYTQICKYMSWINKVIRSN

biological target: T1, HA::AdipoR2 (human); experiment: affinity purification with mass spectrometry; anti-HA immunoprecipitation (rabbit mAb C29F4 + protein A-agarose, 3 h) from lysates of HEK293 cells stably expressing HA-tagged AdipoR2; 25 mM Tris pH 7.5, 300 mM NaCl, 0.1% NP-40; eluted with 0.2 M glycine pH 2.5; 4 IPs; control: cells without HA-tagged protein

binding, binds:
Proteasome subunit beta type 7 (from UniProt Q99436)
Proactivator polypeptide-like 1 (human (endogenous in HEK293))
Proteasome subunit alpha type 6 (from UniProt P60900 1-246)
Proteasome subunit beta type 1 (from UniProt P20618)
Protein CASC3 (from UniProt O15234 1-703)
Cell division control protein 42 homolog (from UniProt P60953 1-191)
Protein-L-isoaspartate O-methyltransferase domain-containing protein 1 (from UniProt Q96MG8 1-357)
Fatty acid–binding protein, adipocyte (from UniProt P15090 1-132)
Dynein light chain 1, cytoplasmic (from UniProt P63167 1-89)
Troponin I, cardiac muscle (from UniProt P19429 1-210)
Heat shock protein 105 kDa (from UniProt Q92598 1-858)
Heterogeneous nuclear ribonucleoprotein C-like 2 (from UniProt B2RXH8 1-293)
Small nuclear ribonucleoprotein Sm D2 (from UniProt P62316 1-118)
Reticulon-1 (from UniProt Q16799 1-776)
High mobility group protein HMGI-C (from UniProt P52926 1-109)
BAG family molecular chaperone regulator 2 (from UniProt O95816 1-211)
Guanine nucleotide-binding protein G(t) subunit alpha-1 (from UniProt P11488 1-350)
Mammaglobin-A (from UniProt Q13296 19-93)
X-ray repair cross-complementing protein 5 (from UniProt P13010 1-732)
Ras-related protein Rap-1b (from UniProt P61224 1-184)
B1
B2
B3
B4
B5
B6
B7

Results are given in words; binding and its absence hold for the method and conditions named. In cells and extracts the contact can be indirect. Here binding means that the protein was enriched with, or labelled near, the bait; the list need not be complete. Sequences can lack the tags named with a protein.
